According to US9255122B2, “Cholate and deoxycholate-based amphiphiles for membrane protein manipulation” (Wisconsin Alumni Research Foundation, priority 2013, dated 2016):
Some results were stated once for a whole list of compounds, not compound by compound.

Tested on: T1, LHI-RC complex
T1 construct: made in house; host or cells: Rhodobacter capsulatus U43[pUHTM86Bgl], intracytoplasmic membranes
Assay: Solubilization of LHI-RC complex from R. capsulatus intracytoplasmic membranes (pellet/supernatant absorbance spectra)
Set-up: species or system Rhodobacter capsulatus
Settings: 2×CMC for DPA-2, CAO, CAO-1; 10×CMC for other new agents; 50×CMC for DDM and LDAO; 32° C., 30 min
Experimental: These two reagents were chosen as control agents for the assay. For the superassembly solubilization, the intracytoplasmic R. capsulatus membranes enriched in LHI-RC complex were treated with 10×CMC individual new agents except DPA-2; DPA-2 was tested at 2×CMC based on its high CMC value. On the other hand, conventional detergents (LDAO and DDM) were used at 50×CMC due to the small CMC value in terms of wt. %. The solubilized protein portion and insolubilized part containing cellular debris and insolubilized membranes were separated via ultracentrifugation and isolated as the supernatant and pellet, respectively. The absorption spectra of these two portions were taken to assess detergents efficacy on the protein solubilization and stabilization.
The solubilization and purification of the R. capsulatus superassembly were conducted according to the published protocol (Chae et al., ChemBioChem 2008, 9, 1706-1709). […]
The spectra of solubilized supernatant and solubilized pellet were taken in a range from 650 nm to 950 nm after being homogenized. […] Purified protein solution were collected by eluting three times with 0.20 mL elution buffer solutions containing 1 M imidazole (otherwise, this buffer was identical to binding buffer; the pH of each solution was readjusted to pH=7.8) and diluted with 0.4 mL of the binding buffer to reach 1.0 mL solution. […]

## C[N+](C)([O-])CCCNC(=O)CC1(C2CCCC2)CCCCCC1 [DPA-1, 3-(2-(1-cyclopentylcycloheptyl)acetamido)-N,N-dimethylpropan-1-amine oxide]
  SY (%) Solubilization yield of LHI-RC complex from the membrane: 95-100%

## C[N+](C)([O-])CCCNC(=O)CC(C1CCCCC1)C1CCCCC1 [DPA-3, reference compound]
  SY (%) Solubilization yield of LHI-RC complex from the membrane: 95-100%
